{
  "source": "patent US20200069664A1",
  "about": "“METHODS FOR TREATING INFECTION” (Salix Pharmaceuticals, Ltd, priority 2010, published 2020)",
  "system": "C difficile isolates",
  "experiment": "In vitro susceptibility of C difficile isolates (agar dilution for rifaximin, Etest for rifampin)",
  "conditions": "rifaximin alone n = 11; rifampin n = 28",
  "data": [
    {"smiles": "CO[C@H]1/C=C/O[C@@]2(C)Oc3c(C)c(O)c4c(O)c(c(/C=N/N5CCN(C)CC5)c(O)c4c3C2=O)NC(=O)/C(C)=C\\C=C\\[C@H](C)[C@H](O)[C@@H](C)[C@@H](O)[C@@H](C)[C@H](OC(C)=O)[C@@H]1C", "note": "[Rifampin, rifampin]", "values": [
      {"measurement": "Resistant isolates with genotype A+ B+ BT+ tcdC-del−, %", "result": "(14) %"},
      {"measurement": "Resistant isolates with genotype A+ B+ BT− tcdC-del+, %", "result": "(18) %"},
      {"measurement": "Resistant isolates with genotype A+ B+ BT− tcdC-del−, %", "result": "(46) %"},
      {"measurement": "Resistant isolates with genotype A− B− BT− tcdC-del−, %", "result": "(14) %"}
    ]}
  ]
}
